Source: patent US11197857B2, “Combination therapy” (GlaxoSmithKline Intellectual Property Development Limited, priority 2016, dated 2021)
At least one compound was matched to its structure with a doubt left.

Test system: MCL cell lines
Experiment: 6-day growth/death CTG assay in MCL cell lines
Format: cell-based

In the case of `C=CC(=O)N1CCC[C@@H](n2nc(-c3ccc(Oc4ccccc4)cc3)c3c(N)ncnc32)C1` [ibrutinib, reference compound], the sensitivity (Mino, Jeko-1) is reported as “sensitive” and the sensitivity (Z-138, Maver-1 and JVM-2) is reported as “resistant”.
